In PMC7401384:
Results are given in words; binding and its absence hold for the method and conditions named. Binding calls can cover weak binding; strength is not graded here.

Protein sequences, listed by entry. Tags and fused reporters are not part of them. Lines headed by an entry give the natural chain unless they say otherwise; changes in a name come on top.
UniProt F7VVC1: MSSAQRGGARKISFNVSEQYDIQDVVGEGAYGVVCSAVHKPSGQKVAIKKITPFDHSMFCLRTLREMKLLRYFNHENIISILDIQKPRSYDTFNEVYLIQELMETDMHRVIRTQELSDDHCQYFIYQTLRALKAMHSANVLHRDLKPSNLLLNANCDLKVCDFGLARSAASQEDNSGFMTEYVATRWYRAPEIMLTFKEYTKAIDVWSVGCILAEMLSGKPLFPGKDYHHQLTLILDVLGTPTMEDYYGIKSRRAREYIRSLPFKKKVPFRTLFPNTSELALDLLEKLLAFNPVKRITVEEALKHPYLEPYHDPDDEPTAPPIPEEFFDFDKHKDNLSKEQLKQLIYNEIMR

What was measured:
[1] = target: MEK2 (Sordaria macrospora) (UniProt F7W4K9); experiment: two-hybrid; GAL4 AD (pGADT7) and GAL4 BD (pGBKT7) fusions in yeast PJ69-4alpha and PJ69-4a, mated to diploids; drop plating, growth on SD medium lacking leucine, tryptophan, adenine and histidine
[2] = target: MAK2 (Sordaria macrospora) (UniProt F7VVC1); experiment: as above

Row | binding [1] | binding [2] | Substance
1 | binds | – | MIK2 (from UniProt F7W3M8) (enzyme)
2 | binds | binds | HAM5 (from UniProt F7VPN9)
